PubChem BioAssay AID1688 (National Center for Advancing Translational Sciences (NCATS), 2009)
About 2,400 (1.1%) of roughly 220,000 compounds were called active. Inconclusive results, whose numbers are uncertain, are shown with a selection of clear calls. Calls come from the whole dose curve; as a rule, active = well fitted inhibition curve with a large enough effect; inconclusive = small, poorly fitted or top-dose-only effect, or effect the other way; inactive = no such curve, though single readings can be large or run the other way. A potency beside an inconclusive call is a rough fit, not a confirmed value.

assay: qHTS Multiplex Assay to Identify Dual Action Probes in a Cell Model of Huntington: Aggregate Formation (GFP); details: PC12 HttQ103-GFP aggregates, Acumen cytometry, 40 h; activity change, negative = inhibition: at 46.1 µM (top of the series) unless noted; note: nearly all actives have a fitted effect of over 60% in size
In short: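 Read-out: GFP aggregate count by laser scanning cytometer (488 nm excitation, 500-530 nm emission, 1–25 µm objects >6 SD above background). Cells: PC12, inducible HTTex1-Q103-GFP, 100 nM tebufenozide; compounds titrated.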
% is set by controls: 0 for no effect and ±100 for the full control effect; potency is the fitted concentration of half-maximal effect.

Compound	Potency	activity change, negative = inhibition
COC(=O)c1ccc(C23CC4(C2)[C@H](CN(CC2CCCCC2)[C@@H]4c2ccccc2)C3c2ccc(C(F)(F)F)cc2)cc1 (stereo not given in full)	inconclusive: 5.01 µM [inhibitor, partial curve, poor fit]	
Cc1cc(S(=O)(=O)Nc2cccc(O)c2)c(C)s1	inconclusive: 11.2 µM [inhibitor, single point]	
O=C1Nc2ccccc2OC1CC(=O)N1CCN(c2cccc(C(F)(F)F)c2)CC1 (stereo not given)	inconclusive: 25.1 µM [inhibitor, single point]	
COc1ccc2c(c1)[nH]c1c(=O)n(/N=C/C3C(C)C=C(C)CC3C)c(=O)[nH]c12 (stereo not given)		inactive: 7.6%
COc1ccc(CC(=O)Nc2cc(S(=O)(=O)N3CCCCC3)ccc2C)cc1OC	inconclusive: 11.2 µM [inhibitor, partial curve, poor fit]	
Cc1c(C#N)c2ccccc2n1CCOc1ccccc1F	inconclusive: 15.8 µM [inhibitor, single point]	
Cc1cc(O)ccc1N/C=C/c1onc(C)c1[N+](=O)[O-]	inconclusive: 0.0282 µM [inhibitor, full curve, poor fit]	
CN1C(=S)SC(C)(C)C1N(O)C(=O)Nc1ccc(Cl)cc1 (stereo not given)	inconclusive: 35.5 µM [inhibitor, single point]	
Cc1ccc(-n2nnnc2SCC(=O)NC2CCCc3ccccc32)c(C)c1 (stereo not given)	inconclusive: 35.5 µM [inhibitor, single point]	
Cc1ccc(/C=C/C(=O)Nc2ccc(Oc3ccccc3)cc2)o1		inactive: -16.9%
COc1ccc(C(=O)Nc2ccc(N3CCOCC3)cc2)cc1S(=O)(=O)NC1CCCC1		inactive: 28.6%
O=S(=O)(NCc1ccncc1)c1ccc(Br)s1	active: 2.51 µM	
Cc1nc2ccccn2c1-c1csc(NCc2ccco2)n1	active: 5.62 µM	
O=C(CNC(=O)c1ccc(Oc2ccccc2)cc1)OC1CCCCC1=O (stereo not given)		inactive: 26.4% [at 9.22 µM]
Cc1ccnc(NS(=O)(=O)c2ccc(NC(=O)C3C4C=CC(C4)C3C(=O)O)cc2)n1 (stereo not given)	inconclusive: 1.26 µM [inhibitor, single point]	
O=c1c(-c2cccc([N+](=O)[O-])c2)[n+]([O-])c2ccccc2n1O		inactive: -20.2% [at 9.22 µM]
Nc1[nH]c(N=NC(=O)c2ccc(Cl)cc2)c2ccccc12	inconclusive: 35.5 µM [inhibitor, single point]	
Cc1ccc(C(=O)CSc2nc3c([nH]2)c(=O)n(C)c(=O)n3C)cc1	inconclusive: 20 µM [activator, partial curve, poor fit]	
C[C@@H](C(=O)Nc1ccc2ccccc2c1)[C@H]1C[C@]1(C)[C@H](NP(=O)(c1ccccc1)c1ccccc1)c1ccccc1	inconclusive: 28.2 µM [inhibitor, single point]	
CC1CC2=C(CC1/C=N/NC(N)=S)C(C)(C)CCC2 (stereo not given)	inconclusive: 7.08 µM [inhibitor, full curve, poor fit]	
O=C(COC(=O)c1cc([N+](=O)[O-])ccc1NCCO)Nc1ccc2c(c1)OCO2	inconclusive: 1 µM [activator, full curve, poor fit]	
CN(C)S(=O)(=O)c1ccc(NC(=O)CCNC(=O)c2ccc([N+](=O)[O-])cc2)cc1		inactive: -18%
CC(C)(C)C(=O)Nc1nc(C2CCCN2S(=O)(=O)c2ccc(Cl)cc2)cs1 (stereo not given)	inconclusive: 10 µM [inhibitor, partial curve]	
C=CCc1cc(/C=C2/NC(=S)NC2=O)cc(OC)c1O		inactive: -10.8%

Compound	Potency	activity change, negative = inhibition
CCc1ccc2[nH]c(=O)c(CN(Cc3ccc(OC)cc3)Cc3nnnn3CCOC)cc2c1	inconclusive: 35.5 µM [inhibitor, single point]	
c1ccc(Cn2c(NCc3ccncc3)nc3ccccc32)cc1		inactive: 6.37% [at 9.22 µM]
COc1ccccc1NC(=O)c1c(Nc2ccccc2C)sc(C(=O)Nc2cccc(Cl)c2)c1N		inactive: -32.3%
O=C(O)Cn1cc(/C=C2/SC(=O)N(CC(=O)N3CCCCCC3)C2=O)c2ccccc21	inconclusive: 14.1 µM [activator, single point]	
CC1CN(c2nc3ccccn3c(=O)c2/C=C(\C#N)C(N)=O)CC(C)O1 (stereo not given)		inactive: 4.72% [at 9.22 µM]
CC1CCCCN1C(=S)Nc1ccc(OC(F)F)cc1 (stereo not given)		inactive: 8.95%
CCc1nnc2sc(-c3ccc(NC(=O)c4ccc5c(c4)OCCO5)cc3)nn12	inconclusive: 3.55 µM [inhibitor, single point]	
Cc1cccc(NC(=O)C2CCCC2)c1		inactive: 7.63%
Cc1ccc(C(=O)N2CCN(c3cccc(Cl)c3)CC2)cc1C	inconclusive: 28.2 µM [inhibitor, single point]	
c1ccc(-c2cc3c(ccc4nonc43)nn2)cc1		inactive: 7.8%
COc1cc(NC(=S)NCc2cccnc2)cc(OC)c1		inactive: -10.3%
Fc1ccc(-n2c(-c3ccc4ccccc4n3)n[nH]c2=S)cc1Cl	inconclusive: 22.4 µM [activator, partial curve]	
Cn1c(=O)n(C)c(=O)n(CC(=O)N2CCCCC2)c1=O	active: 3.55 µM	
Cc1ccc(-n2nnnc2C(Cl)c2nnnn2-c2ccc(C)cc2)cc1	inconclusive: 35.5 µM [inhibitor, single point]	
CCCn1c(NC(=O)c2ccco2)nc2ccccc21	inconclusive: 8.91 µM [inhibitor, partial curve, poor fit]	
O=C1N/C(=C/c2ccc(N3CCOCC3)o2)C(=O)N1c1ccccc1	inconclusive: 35.5 µM [inhibitor, single point]	
CCCOC(=O)c1ccc(NC(=O)C2C3C=CC(O3)C2C(=O)O)cc1 (stereo not given)	inconclusive: 1.12 µM [activator, partial curve]	
O=C1NN(c2ccccc2)C(=O)/C1=C/c1ccc(Sc2cccc3ccccc23)o1	inconclusive: 35.5 µM [activator, single point]	
CCCCCCc1cc2cc(C(=O)Nc3ccccc3)c(=O)oc2cc1O	active: 2.24 µM	
COc1ccc(Cl)cc1NC(=O)CN(C)CC(=O)NC(C)c1ccccc1 (stereo not given)		inactive: 4.38%
COCCCn1c(-c2ccc(S(=O)(=O)N3CCOCC3)cc2)csc1=Nc1ccccc1	inconclusive: 2.51 µM [inhibitor, single point]	
COC(C/C=C/[C@H](O)COCc1ccccc1)OC	inconclusive: 6.31 µM [activator, partial curve, poor fit]	
CCN(CC)S(=O)(=O)c1ccc(Oc2ccc(S(=O)(=O)N(CC)CC)cc2)cc1	active: 2.82 µM	
C=C(C)Cn1c(-c2ccc(OC)cc2)nc2ccccc21	inconclusive: 22.4 µM [inhibitor, single point]	

Compound	Potency	activity change, negative = inhibition
Nc1nnnn1/N=C/C(Br)=C/c1ccccc1	inconclusive: 35.5 µM [inhibitor, single point]	
O=C1/C(=C/c2ccccc2O)SC(=S)N1Cc1cccnc1		inactive: 9.01%
CCn1c([N+](=O)[O-])nc2c1c(=O)[nH]c(=O)n2C	inconclusive: 14.1 µM [inhibitor, single point]	
O=C(CSc1c2c(nc3ccccc13)CCCC2)NCc1ccco1	active: 12.6 µM	
CC(=O)/C=C/c1ccc2ccccc2n1	inconclusive: 3.16 µM [inhibitor, single point]	
O=C(Nc1ccc(Nc2ccccc2)cc1)C(Cl)Cl	inconclusive: 5.62 µM [activator, partial curve]	
O=S(=O)(/N=S1/CC=CCN1S(=O)(=O)c1ccccc1)c1ccccc1 (stereo not given)	inconclusive: 22.4 µM [inhibitor, single point]	
CC(=O)c1ccc(NC(=S)NCc2ccc(Cl)cc2Cl)cc1	inconclusive: 35.5 µM [inhibitor, single point]	
CCOc1ccc(-n2c(O)c(/C=N/Nc3nc(C)cc(C)n3)c3ccccc3c2=O)cc1	inconclusive: 10 µM [inhibitor, partial curve]	
Brc1ccccc1-c1nnc(COc2ncnc3c2cnn3-c2ccccc2)o1	inconclusive: 28.2 µM [inhibitor, single point]	
Cc1ccc(C2CC(c3cccs3)=NN2C(=O)c2ccc(Br)o2)cc1 (stereo not given)	inconclusive: 5.62 µM [inhibitor, single point]	
Cc1ccc(C2C(C#N)=C(N)SC(N)=C2C#N)o1	inconclusive: 35.5 µM [inhibitor, single point]	
Cc1ccc(NC(=O)C(Nc2cccc(C)c2)c2ccccc2)cc1 (stereo not given)		inactive: -13.1%
COC1(c2cc(-c3ccccc3)nc(N)n2)CCCCC1	inconclusive: 22.4 µM [inhibitor, single point]	
Cc1ccc(NC(=S)NCC(C)CSc2ccc(Cl)cc2)cc1 (stereo not given)	active: 25.1 µM	
O=C(CSc1nc2ccccc2s1)Nc1nccs1	active: 20 µM	
CCOC(=O)C(NC(=O)c1ccccc1Cl)(Nc1sc2c(c1C(N)=O)CCC2)C(F)(F)F (stereo not given)	inconclusive: 35.5 µM [activator, single point]	
COc1ccccc1OCc1nc(-c2ccc([N+](=O)[O-])cc2)no1	inconclusive: 25.1 µM [activator, partial curve]	
COc1cc2c(cc1OC)C(C)N(C(=O)c1cc3c(s1)-c1c(C)cccc1OC3)CC2 (stereo not given)	inconclusive: 35.5 µM [inhibitor, single point]	
CCCCC1(C)NC(=S)N2N1C(=S)NC2(C)CCCC (stereo not given)		inactive: -10.6% [at 9.22 µM]
O=C(N/N=C/c1sc2ccccc2c1O)c1ccccc1	active: 3.16 µM	
CCN1C(=O)C(O)(C2COC(C)(C)CC2=O)c2cc(Br)ccc21 (stereo not given)	inconclusive: 14.1 µM [activator, single point]	

Single records, as listed above:
`O=C(Nc1ccc(Nc2ccccc2)cc1)C(Cl)Cl` as listed: Potency: inconclusive: 5.62 µM [activator, partial curve]
`CCOC(=O)C(NC(=O)c1ccccc1Cl)(Nc1sc2c(c1C(N)=O)CCC2)C(F)(F)F` (stereo not given) as listed: Potency: inconclusive: 35.5 µM [activator, single point]

Molecules listed so far that contain a cyano group, in the order listed:
Compound	Potency	activity change, negative = inhibition
Cc1c(C#N)c2ccccc2n1CCOc1ccccc1F	inconclusive: 15.8 µM [inhibitor, single point]	
CC1CN(c2nc3ccccn3c(=O)c2/C=C(\C#N)C(N)=O)CC(C)O1 (stereo not given)		inactive: 4.72% [at 9.22 µM]
Cc1ccc(C2C(C#N)=C(N)SC(N)=C2C#N)o1	inconclusive: 35.5 µM [inhibitor, single point]	
